The nature of this test: sensitizers of A549 cells to miR-34 induction, primary screen, imaging, A549 dox-inducible miR-34, nuclei and caspase counts (AID 1347080). Note: test concentration not given here. Conditions: A549 miR-34 inducible, Hoechst nuclei count, 48 h.

The record followed here is PubChem BioAssay AID1347080 (ICCB-Longwood Screening Facility, Harvard Medical School, 2019).

Several values for one entry are separate records, joined by “and”; a condition that tells them apart may be missing. Equal entries are not always repeated. The list shows a part of the results.

As for `CN(CCCl)CCCl`, the fold change (measured here: relative caspase fold change +Dox/-Dox) is 1.54 and 1.22. The cell count reads like this: (measured here: total cells with miR-34 induction, stronger effect = lower value) 1990 and 2240; (measured here: total cells without miR-34 induction) 2170 and 2380.
